Results as given in PMC3585373.
Results are given in words; binding and its absence hold for the method and conditions named. Binding seen in cells or lysates may run through a third protein. Some binding calls cover weakened binding; strength is not graded here. Where a sequence is shown, tags or fusion partners need not be part of it. One block for each molecule: values may come before it.

Amino acid sequences for entries named in this document (tags omitted).
UniProt P63208: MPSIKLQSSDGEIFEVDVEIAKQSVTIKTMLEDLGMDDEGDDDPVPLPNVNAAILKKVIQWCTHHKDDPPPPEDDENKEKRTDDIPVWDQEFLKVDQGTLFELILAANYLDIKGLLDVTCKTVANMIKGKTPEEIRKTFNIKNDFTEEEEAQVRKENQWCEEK

Key:
Experiment in all cases: co-IP; HEK 293T cells transfected with the indicated plasmids, lysed in Co-IP buffer (1% NP40, 150 mM NaCl, 20 mM Tris pH 7.4, 1 mM EDTA, 10% glycerol, protease inhibitors); 1 mg lysate with primary antibody, then protein A sepharose; SDS-PAGE and immunoblotting
GFP-FBXO31 WT = target: T1, GFP-FBXO31 WT (UniProt Q5XUX0)
T1 sequence: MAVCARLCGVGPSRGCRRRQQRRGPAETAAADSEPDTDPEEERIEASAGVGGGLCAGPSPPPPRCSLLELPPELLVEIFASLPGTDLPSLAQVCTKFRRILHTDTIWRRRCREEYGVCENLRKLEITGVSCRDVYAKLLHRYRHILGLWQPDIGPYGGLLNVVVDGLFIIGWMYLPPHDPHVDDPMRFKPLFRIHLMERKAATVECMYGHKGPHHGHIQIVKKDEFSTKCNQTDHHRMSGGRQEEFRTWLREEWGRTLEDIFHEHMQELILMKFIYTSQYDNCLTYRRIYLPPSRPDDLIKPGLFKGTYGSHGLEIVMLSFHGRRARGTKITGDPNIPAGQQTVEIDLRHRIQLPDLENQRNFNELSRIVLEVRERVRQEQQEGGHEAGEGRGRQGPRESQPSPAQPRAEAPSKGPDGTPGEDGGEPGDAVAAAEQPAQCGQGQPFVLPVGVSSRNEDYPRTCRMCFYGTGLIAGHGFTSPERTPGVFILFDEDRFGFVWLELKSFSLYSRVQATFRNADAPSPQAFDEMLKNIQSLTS

mycPar6c = target: T2, mycPar6c (UniProt Q9NPB6)
T2 sequence: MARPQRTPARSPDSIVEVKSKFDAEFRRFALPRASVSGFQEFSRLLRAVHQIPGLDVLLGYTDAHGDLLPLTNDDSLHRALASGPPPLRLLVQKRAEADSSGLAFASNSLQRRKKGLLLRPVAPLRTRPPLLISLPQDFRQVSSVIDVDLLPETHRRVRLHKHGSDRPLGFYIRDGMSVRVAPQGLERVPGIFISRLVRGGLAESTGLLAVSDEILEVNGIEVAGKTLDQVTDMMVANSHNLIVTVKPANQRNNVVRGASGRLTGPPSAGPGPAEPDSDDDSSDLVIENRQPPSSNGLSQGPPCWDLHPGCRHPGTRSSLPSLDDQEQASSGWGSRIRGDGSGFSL

Flag-tagged FBXO31 = target: T3, Flag-tagged FBXO31 (UniProt Q5XUX0)
T3 sequence: T1 sequence

binding (GFP-FBXO31 WT): binds
Molecule: mycSkp1 (from UniProt P63208 1-163)

binding (mycPar6c): binds
B1: Flag-tagged FBXO31 (protein, UniProt Q5XUX0 1-539)
chain: T1 sequence

binding (Flag-tagged FBXO31): binds
B2: mycPar6c (protein, UniProt Q9NPB6 1-346)
chain: T2 sequence
